Data taken from the supplement of paper PMC4604168 (melanoma cell lines).
The other results are listed elsewhere or left out. Many values rest on one well or one pass, so single values are uncertain.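 The apoptosis fraction was the count of cleaved-PARP antibody-stained nuclei relative to all DNA-stained nuclei, imaged in 1,536-well plates. Screening doses were set so most cells survived, and baseline and induced cleaved-PARP levels vary greatly across cell lines.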

Tests used:
Test in all cases: cleaved PARP positive nuclei fraction relative to DMSO control; melanoma cells; higher = more apoptosis
Details in all cases: library dose: low library concentration; 72 h
501Mel = test system: 501Mel
A101D = test system: A101D
A2058 = test system: A2058
C32 = test system: C32
CBRC008 = test system: CBRC008 (line from a melanoma biopsy)
CBRC014 = test system: CBRC014 (line from a melanoma biopsy)
CBRC016 = test system: CBRC016 (line from a melanoma biopsy)
CBRC017 = test system: CBRC017 (line from a melanoma biopsy)

Row | Structure (SMILES) | cleaved PARP positive nuclei fraction (501Mel) [%] | cleaved PARP positive nuclei fraction (A101D) [%] | cleaved PARP positive nuclei fraction (A2058) [%] | cleaved PARP positive nuclei fraction (C32) [%] | cleaved PARP positive nuclei fraction (CBRC008) [%] | cleaved PARP positive nuclei fraction (CBRC014) [%] | cleaved PARP positive nuclei fraction (CBRC016) [%] | cleaved PARP positive nuclei fraction (CBRC017) [%]
1 | Cn1sc(=O)n(Cc2ccccc2)c1=O + c1cc(-c2cnn3cc(-c4ccc(OCCN5CCCCC5)cc4)cnc23)ccn1 [Dorsomorphin] (first compound 0.4 µM, partner dose 0.4 µM) | 69.5 | 44.2 | 173 | 76.4 | 84.1 | 98.2 | 41.7 | 81.8
2 | CN(c1ncccc1CNc1nc(Nc2ccc3c(c2)CC(=O)N3)ncc1C(F)(F)F)S(C)(=O)=O + N#Cc1c(O)c2c(-c3ccc(-c4ccccc4O)cc3)csc2[nH]c1=O [A769662] (first compound 0.08 µM, partner dose 2 µM) | 69.8 | 62.6 | 109 | 186 | 89.3 | 95.2 | 51.2 | 112
3 | CCN(CC)CCNC(=O)c1c(C)[nH]c(/C=C2\C(=O)Nc3ccc(F)cc32)c1C [sunitinib] + Oc1nc(-c2ccc(C(F)(F)F)cc2)nc2c1CSCC2 [XAV939] (first compound 0.4 µM, partner dose 2 µM) | 85.4 | 79.8 | 95.3 | 157 | 56.9 | 102 | 120 | 114
4 | NC1(c2ccc(-c3nc4ccn5c(=O)[nH]nc5c4cc3-c3ccccc3)cc2)CCC1 + O=C(Nc1ccccc1)c1cc([N+](=O)[O-])ccc1Cl [GW9662] (first compound 0.4 µM, partner dose 2 µM) | 140 | 16.8 | 28.7 | 30.7 | 189 | 93.3 | 62.9 | 92.8
5 | NC1(c2ccc(-c3nc4ccn5c(=O)[nH]nc5c4cc3-c3ccccc3)cc2)CCC1 + O=C(O)C(=O)Nc1sc2c(c1C(=O)O)CCNC2 [TCS401] (first compound 0.4 µM, partner dose 1.66667 µM) | 81.3 | 35.7 | 123 | 97.1 | 64.3 | 90.2 | 52.4 | 71
6 | Cn1sc(=O)n(Cc2ccccc2)c1=O + O=C1NC(=O)/C(=C/c2ccc(-c3ccc(F)cc3O)o2)S1 [AS252424] (first compound 0.4 µM, partner dose 1 µM) | 110 | 14.9 | 44.2 | 68.1 | 153 | 165 | 49.1 | 108
7 | C[C@]1(O)C[C@@H](c2nc(-c3ccc4ccc(-c5ccccc5)nc4c3)c3c(N)nccn32)C1 + COC(=O)c1sccc1S(=O)(=O)Nc1ccc(Nc2ccccc2)cc1OC [GSK0660] (first compound 0.4 µM, partner dose 1 µM) | 65.1 | 87.1 | 73.2 | 32.6 | 207 | 83.8 | 62.3 | 95.7
8 | C[C@]1(O)C[C@@H](c2nc(-c3ccc4ccc(-c5ccccc5)nc4c3)c3c(N)nccn32)C1 + Oc1cc(-c2nc(-c3ccccc3)[nH]c2-c2ccncc2)ccc1Cl [L779450] (first compound 0.4 µM, partner dose 0.2 µM) | 69.7 | 6.05 | 76.9 | 79.6 | 94.4 | 222 | 27.8 | 90.9
9 | Cn1cnc2c(F)c(Nc3ccc(Br)cc3Cl)c(C(=O)NOCCO)cc21 [selumetinib] + O=C(O)C(=O)Nc1sc2c(c1C(=O)O)CCNC2 [TCS401] (first compound 0.015 µM, partner dose 1.66667 µM) | 169 | 46.3 | 94.5 | 58.4 | 168 | 101 | 79.2 | 85
10 | CC(=O)O[C@@]12CO[C@@H]1C[C@H](O)[C@@]1(C)C(=O)[C@H](O)C3=C(C)[C@@H](OC(=O)[C@H](O)[C@@H](NC(=O)OC(C)(C)C)c4ccccc4)C[C@@](O)([C@@H](OC(=O)c4ccccc4)[C@H]21)C3(C)C [Docetaxel] + O=S(=O)(c1ccccc1)N(CC(F)(F)F)c1ccc(C(O)(C(F)(F)F)C(F)(F)F)cc1 [T0901317] (first compound 0.0001 µM, partner dose 1.4 µM) | 109 | 48.2 | 2460 | 386 | 364 | 229 | 189 | 142
11 | CCCCCCCCc1ccc(CCC(N)(CO)CO)cc1 [fingolimod] + O=S(=O)(c1ccccc1)N(CC(F)(F)F)c1ccc(C(O)(C(F)(F)F)C(F)(F)F)cc1 [T0901317] (first compound 2 µM, partner dose 1.4 µM) | 176 | 50 | 139 | 78.8 | 177 | 105 | 45.4 | 225
